Reference: publication PMC9452830
No constants are given. Whether binding was seen depends on the method and setting. For some of these results: In cells and extracts the contact can be indirect. Some binding calls cover weakened binding; strength is not graded here.

Sequences of proteins named here, by UniProt entry; tags and fusion partners are left off. A change or cut given only in a name is not applied to a line headed by its entry. A line that says so, or that is headed by a name, gives the form on record, which may keep a tag or linker. Residues count along the entry.
UniProt Q13772: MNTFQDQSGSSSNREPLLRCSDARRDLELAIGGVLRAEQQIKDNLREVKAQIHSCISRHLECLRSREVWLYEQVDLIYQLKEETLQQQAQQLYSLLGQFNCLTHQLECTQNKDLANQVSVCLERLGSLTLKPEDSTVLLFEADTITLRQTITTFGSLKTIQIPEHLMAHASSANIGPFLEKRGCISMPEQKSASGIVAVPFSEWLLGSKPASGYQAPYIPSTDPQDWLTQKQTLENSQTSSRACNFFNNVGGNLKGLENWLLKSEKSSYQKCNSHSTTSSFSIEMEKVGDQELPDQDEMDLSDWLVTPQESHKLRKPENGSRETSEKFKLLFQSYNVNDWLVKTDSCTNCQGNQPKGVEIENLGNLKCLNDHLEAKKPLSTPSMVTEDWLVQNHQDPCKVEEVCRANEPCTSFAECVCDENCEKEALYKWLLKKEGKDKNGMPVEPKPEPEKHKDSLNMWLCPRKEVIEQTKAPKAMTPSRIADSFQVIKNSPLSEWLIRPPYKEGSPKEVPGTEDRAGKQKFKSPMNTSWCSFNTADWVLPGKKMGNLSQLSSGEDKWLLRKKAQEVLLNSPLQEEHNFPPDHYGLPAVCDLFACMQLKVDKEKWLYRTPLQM
N-terminal domain (residues 1–182) of NCOA4, wild type, two-hybrid fusion: residues 1-182 of Q13772
mGFP-NCOA4N with L63R mutation (Q13772-1, form named): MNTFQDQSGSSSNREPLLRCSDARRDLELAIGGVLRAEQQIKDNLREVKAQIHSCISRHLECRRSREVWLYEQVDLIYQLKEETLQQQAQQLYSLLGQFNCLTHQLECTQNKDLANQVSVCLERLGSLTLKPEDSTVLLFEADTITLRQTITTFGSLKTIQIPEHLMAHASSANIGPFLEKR
mGFP-NCOA4N with I56E mutation (Q13772-1, form named): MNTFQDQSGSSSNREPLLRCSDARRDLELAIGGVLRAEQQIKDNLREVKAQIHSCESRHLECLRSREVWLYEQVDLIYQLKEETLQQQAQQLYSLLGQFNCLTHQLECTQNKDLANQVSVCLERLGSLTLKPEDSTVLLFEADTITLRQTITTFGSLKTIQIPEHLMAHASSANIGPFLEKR

Tests used:
[1] = target: 3×FLAG-tagged NCOA4 (FLAG-NCOA4), full-length, wild type (human) (UniProt Q13772); assay: co-IP; anti-DYKDDDDK/FLAG magnetic beads on lysates of NCOA4 KO HeLa cells expressing FLAG-NCOA4 and mGFP-NCOA4N; 0.1% DDM in 25 mM HEPES-KOH pH 7.2, 150 mM NaCl, 2 mM EDTA; 3 h at 4°C; immunoblots for FLAG, GFP, FTH1, FTL
[2] = target: FLAG-NCOA4 L63R mutant, full-length (human) (UniProt Q13772); assay: as above
[3] = target: N-terminal domain (residues 1–182) of NCOA4, wild type, two-hybrid fusion (human) (UniProt Q13772); assay: two-hybrid; yeast AH109 cells; NCOA4 N-terminal domain (1–182) fused with AD (pGADT7) or BD (pGBKT7); growth on SD (-Leu, -Trp, -Ade) plates
[4] = target: FLAG-NCOA4 I56E mutant, full-length (human) (UniProt Q13772); assay: co-IP; anti-DYKDDDDK/FLAG magnetic beads on lysates of NCOA4 KO HeLa cells expressing FLAG-NCOA4 and mGFP-NCOA4N; 0.1% DDM in 25 mM HEPES-KOH pH 7.2, 150 mM NaCl, 2 mM EDTA; 3 h at 4°C; immunoblots for FLAG, GFP, FTH1, FTL

For “N-terminal domain of NCOA4 (NCOA4N) fused with mGFP, wild type (from UniProt Q13772-1 1-182) (domain or fragment)”, the binding [1] was “binds”.
With “mGFP-NCOA4N with L63R mutation (from UniProt Q13772-1 1-182) (domain or fragment)” the binding [2] was “no binding”.
In the case of “N-terminal domain (residues 1–182) of NCOA4, wild type, two-hybrid fusion (from UniProt Q13772-1 1-182) (domain or fragment)”, the binding [3] is reported as “binds”.
With “mGFP-NCOA4N with I56E mutation (from UniProt Q13772-1 1-182) (domain or fragment)” the binding [4] was “no binding”.
